Results are given in words; binding and its absence hold for the method and conditions named. Binding seen in cells or lysates may run through a third protein. A result given as binding can be weak or reduced; the word gives no strength.
Experiments:
[1] = target: EGFP-hPIAS2b (human) (UniProt O75928); test: pull-down; GFP-Trap beads with 2 mg lysate of 8305C cells transfected with EGFP constructs, SUMO-lysis buffer with N-ethylmaleimide (non-denaturing), 4 °C overnight, western blot; asynchronous, DT/R-0 h and DT/R-6 h cells
[2] = target: PIAS2 beta isoform (PIAS2b), endogenous (human (endogenous in 8305C)) (UniProt O75928); test: co-IP; endogenous proteins in 8305C extracts synchronized at mitosis (DT/R-6 h; for TUBB3 also DT/R-0 h), antibody overnight, protein G-Sepharose, 5 washes with HNTG buffer, western blot

Protein sequences, listed by entry. Tags and fused reporters are not part of them. Lines headed by an entry give the natural chain unless they say otherwise; changes in a name come on top.
UniProt O75928: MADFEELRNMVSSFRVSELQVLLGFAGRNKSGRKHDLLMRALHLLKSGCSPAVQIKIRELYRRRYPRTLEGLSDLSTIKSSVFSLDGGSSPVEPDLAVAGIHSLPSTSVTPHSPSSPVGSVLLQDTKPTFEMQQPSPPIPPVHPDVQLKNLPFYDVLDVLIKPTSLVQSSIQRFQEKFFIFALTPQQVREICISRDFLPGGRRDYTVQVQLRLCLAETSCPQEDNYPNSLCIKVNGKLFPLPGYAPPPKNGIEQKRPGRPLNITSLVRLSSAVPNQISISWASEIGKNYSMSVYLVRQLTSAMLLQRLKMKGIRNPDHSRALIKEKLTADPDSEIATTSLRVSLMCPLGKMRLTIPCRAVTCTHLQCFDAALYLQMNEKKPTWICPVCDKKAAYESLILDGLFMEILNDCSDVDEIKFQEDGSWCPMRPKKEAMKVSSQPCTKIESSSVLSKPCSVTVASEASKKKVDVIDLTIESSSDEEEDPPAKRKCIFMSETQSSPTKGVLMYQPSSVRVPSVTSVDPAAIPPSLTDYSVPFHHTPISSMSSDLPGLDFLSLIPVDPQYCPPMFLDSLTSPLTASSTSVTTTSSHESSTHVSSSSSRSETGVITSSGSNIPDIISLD
UniProt P23258: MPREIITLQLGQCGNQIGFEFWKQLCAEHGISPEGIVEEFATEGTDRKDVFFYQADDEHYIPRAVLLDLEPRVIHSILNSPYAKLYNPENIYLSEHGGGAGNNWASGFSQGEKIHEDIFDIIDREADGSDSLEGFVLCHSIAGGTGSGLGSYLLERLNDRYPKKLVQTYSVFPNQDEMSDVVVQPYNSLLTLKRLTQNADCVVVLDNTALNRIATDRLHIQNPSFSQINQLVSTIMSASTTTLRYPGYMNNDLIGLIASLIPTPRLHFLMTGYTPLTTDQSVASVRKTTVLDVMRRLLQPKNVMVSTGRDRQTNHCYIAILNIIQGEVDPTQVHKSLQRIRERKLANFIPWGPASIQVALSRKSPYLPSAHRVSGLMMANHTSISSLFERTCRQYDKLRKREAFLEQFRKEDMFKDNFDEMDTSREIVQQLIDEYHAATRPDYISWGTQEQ

gamma tubulin, endogenous (from UniProt P23258)
binding [1]: binds | binding [2]: binds

— publication PMC11094195
